From patent publication US20080311599A1
These are yes or no findings as the source states them, for the method shown. In cells and extracts the contact can be indirect. Some binding calls cover weakened binding; strength is not graded here. One block for each binder: values may come before it.

By UniProt entry, the sequences of proteins in these tests, tags left out. Where a name states a change or a piece, a line headed by the entry shows the natural chain unless it says otherwise.
UniProt Q14790: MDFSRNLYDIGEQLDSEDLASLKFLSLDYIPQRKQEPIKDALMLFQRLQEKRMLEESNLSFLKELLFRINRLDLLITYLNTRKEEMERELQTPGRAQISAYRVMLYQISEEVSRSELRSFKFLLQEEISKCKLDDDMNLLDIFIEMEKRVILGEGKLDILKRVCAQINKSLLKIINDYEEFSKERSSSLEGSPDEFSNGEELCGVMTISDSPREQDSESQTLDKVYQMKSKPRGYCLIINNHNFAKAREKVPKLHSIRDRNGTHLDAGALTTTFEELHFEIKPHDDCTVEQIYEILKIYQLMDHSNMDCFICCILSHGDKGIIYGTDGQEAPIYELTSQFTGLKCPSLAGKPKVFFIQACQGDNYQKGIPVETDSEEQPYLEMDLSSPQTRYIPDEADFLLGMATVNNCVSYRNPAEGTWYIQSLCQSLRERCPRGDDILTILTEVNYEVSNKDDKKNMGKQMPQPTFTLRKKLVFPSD

How the values were obtained:
pro-caspase-8 (human) [1] = biological target: pro-caspase-8 (human) (UniProt Q14790); experiment: co-immunoprecipitation with mAb 179 from BJAB lysates, Silver staining
pro-caspase-8 (human) [2] = biological target: pro-caspase-8 (human) (UniProt Q14790); experiment: co-immunoprecipitation from lysates of non-stimulated cell lines
pro-caspase-8 (human) [3] = biological target: pro-caspase-8 (human) (UniProt Q14790); experiment: co-immunoprecipitation with mAb 179 from BJAB lysates, SDS-PAGE and Silver staining
pro-caspase-8 (human) [4] = biological target: pro-caspase-8 (human) (UniProt Q14790); experiment: co-immunoprecipitation with mAb 179 from BJAB lysates, time course, Silver staining
pro-caspase-8 (human) [5] = biological target: pro-caspase-8 (human) (UniProt Q14790); experiment: co-immunoprecipitation with mAb 179
pro-caspase-8 (human) [6] = biological target: pro-caspase-8 (human) (UniProt Q14790); experiment: co-immunoprecipitation with mAb 179 from BJAB lysates after 20 minutes of Fas-ligand, Silver staining
pro-caspase-8 (human) [7] = biological target: pro-caspase-8 (human) (UniProt Q14790); experiment: co-immunoprecipitation with mAb 179 from BJAB lysates after 20 minutes of Fas-ligand
pro-caspase-8 (human) [8] = biological target: pro-caspase-8 (human) (UniProt Q14790); experiment: co-immunoprecipitation with mAb 179 from BJAB lysates, time course of Fas-ligand treatment

binding (pro-caspase-8 (human) [1]): binds | binding (pro-caspase-8 (human) [2]): binds | binding (pro-caspase-8 (human) [3]): binds | binding (pro-caspase-8 (human) [4]): binds | binding (pro-caspase-8 (human) [5]): binds
B1: p72 (protein)
chain: MSLKMDNRDVAGKANRWFGVAPPKSGKMNMNILHQEELIAQKKREIEAKMEQKAKQNQVASPQPPHPGEITNAHNSSCISNKFANDGSFLQQFLKLQKAQTSTDAPTSAPSAPPSTPTPSAGKRSLLISRRTGLGLASLPGPVKSYSHAKQLPVAHRPSVFQSPDEDEEEDYEQWLEIKVSPPEGAETRKVIEKLARFVAEGGPELEKVAMEDYKDNPAFAFLHDKNSREFLYYRKKVAEIRKEAQKSQAASQKVSPPEDEEVKNLAEKLARFIADGGPEVETIALQNNRENQAFSFLYEPNSQGYKYYRQKLEEFRKAKASSTGSFTAPDPGLKRKSPPEALSGSLPPATTCPASSTPAPTIIPAPAAPGKPASAATVKRKRKSRWGPEEDKVELLPAELVQRDVDASPSPLSVQDLKGLGYEKGKPVGLVGVTELSDAQKKQLKEQQEMQQMYDMIMQHKRAMQDMQLLWEKAVQQHQHGYDSDEEVDSELGTWEHQLRRMEMDKTREWAEQLTKMGRGKHFIGDFLPPDELEKFMETFKALKEGREPDYSEYKEFKLTVENIGYQMLMKMGWKEGEGLGSEGQGIKNPVNKGTTTVDGAGFGIDRPAELSKEDDEYEAFRKRMMLAYRFRPNPLNNPRRPYY

binding (pro-caspase-8 (human) [6]): binds | binding (pro-caspase-8 (human) [4]): binds | binding (pro-caspase-8 (human) [7]): binds | binding (pro-caspase-8 (human) [8]): binds
B2: 68 kDa fragment of p72 (protein)
chain: MSLKMDNRDVAGKANRWFGVAPPKSGKMNMNILHQEELIAQKKREIEAKMEQKAKQNQVASPQPPHPGEITNAHNSSCISNKFANDGSFLQQFLKLQKAQTSTDAPTSAPSAPPSTPTPSAGKRSLLISRRTGLGLASLPGPVKSYSHAKQLPVAHRPSVFQSPDEDEEEDYEQWLEIKVSPPEGAETRKVIEKLARFVAEGGPELEKVAMEDYKDNPAFAFLHDKNSREFLYYRKKVAEIRKEAQKSQAASQKVSPPEDEEVKNLAEKLARFIADGGPEVETIALQNNRENQAFSFLYEPNSQGYKYYRQKLEEFRKAKASSTGSFTAPDPGLKRKSPPEALSGSLPPATTCPASSTPAPTIIPAPAAPGKPASAATVKRKRKSRWGPEEDKVELLPAELVQRDVDASPSPLSVQDLKGLGYEKGKPVGLVGVTELSDAQKKQLKEQQEMQQMYDMIMQHKRAMQDMQLLWEKAVQQHQHGYDSDEEVDSELGTWEHQLRRMEMDKTREWAEQLTKMGRGKHFIGDFLPPDELEKFMETFKALKEGREPDYSEYKEFKLTVENIGYQMLMKMGWKEGEGLGSEGQGIKNPVNKGTTTVD
